Laboratory results published in the supplement of paper PMC3682954.
Where a name gives a salt, the structure may show the parent alone. ± gives the standard deviation of the averaged measurements. The list shows a part of the results. Most values come without repeats; read them as rough.

Test system: RAW 264.7
Test: cell viability (MTT) relative to vehicle control; higher = more viable cells
Details: stimulus: HMGB1 5 ug/ml, 18 h
[1] = compound concentration: 1 ug/ml

Compound | cell viability (compound concentration: 3 uM) | cell viability [1]
CN1CCCN=C1/C=C/c1cccs1 [Pyrantel tartrate] | 110% | –
CN1CCCN=C1/C=C/c1cccs1 [Pyrantel Pamoate] | 80.9% | –
CN1CCCN=C1/C=C/c1cccs1 | 96.4% | –
CCC[C@@H]1C[C@@H](C(=O)N[C@@H]([C@H]2O[C@H](SC)[C@H](O)[C@@H](O)[C@H]2O)[C@@H](C)O)N(C)C1 | 104% | –
CCC[C@@H]1C[C@@H](C(=O)N[C@@H]([C@H]2O[C@H](SC)[C@H](O)[C@@H](O)[C@H]2O)[C@@H](C)O)N(C)C1 [Lincomycin hydrochloride] | 101% | –
CCC[C@@H]1C[C@@H](C(=O)N[C@@H]([C@H]2O[C@H](SC)[C@H](O)[C@@H](O)[C@H]2O)[C@@H](C)O)N(C)C1 [Lincomycin] | 111% | –
CCOC1O[C@H]([C@@H](COCc2ccccc2)OCc2ccccc2)[C@H](OCc2ccccc2)[C@H]1O (some centres not stated) [Tribenoside] | 104% | –
c1cc(CN2CCCCC2)cc(OCCCNc2nc3ccccc3s2)c1 | 108% | –
CNCC(O)c1ccc(O)c(O)c1 (configuration not stated) [Racepinephrine HCl] | 113% | –
CCOC(=O)[C@@H](C)Oc1cccc2c(=O)n(CC(=O)Nc3ccc4c(c3)OCCO4)ccc12 | 94.8% | –
O=C(O)C1=C(CSc2nnnn2CS(=O)(=O)O)CS[C@@H]2[C@H](NC(=O)[C@H](O)c3ccccc3)C(=O)N12 | 104% | –
CCCCCCOc1ccccc1C(N)=O | 113% | –
c1ccc2c(c1)CC(N1CCN(c3cccc4c3OCCO4)CC1)C2 | 117% | –
Cc1cc2c(C(C)C)c(O)c(O)c3c2c(c1-c1c(C)cc2c(C(C)C)c(O)c(O)c4c2c1OC4N)OC3N (configuration not stated) | – | 121%
NC[C@H](O)c1ccc(O)c(O)c1 | 101% | –
CCN(CC)CCNC(=O)c1ccc(N)cc1 | 98.9% | –
CCN(CC)CCNC(=O)c1ccc(N)cc1 [Procainamide] | 114% | –
CCN(CC)CCNC(=O)c1ccc(N)cc1 [Procainamide hydrochloride] | 96.5 ± 7.1% | –
CC(=O)Nc1c(I)c(C(=O)N[C@H]2C(O)O[C@H](CO)[C@@H](O)[C@@H]2O)c(I)c(N(C)C(C)=O)c1I (some centres not stated) [Metrizamide] | 114% | –
CN[C@H]1CC[C@@H](c2ccc(Cl)c(Cl)c2)c2ccccc21 | 94.1% | –
CN[C@H]1CC[C@@H](c2ccc(Cl)c(Cl)c2)c2ccccc21 [Sertraline] | 82 ± 14% | –
CN[C@H]1CC[C@@H](c2ccc(Cl)c(Cl)c2)c2ccccc21 [Sertraline hydrochloride] | 95.7% | –
CCC(C)(C)N=C(NC#N)Nc1cccnc1 | 101% | –
C[C@@H]1CCC[C@H](C)N1NC(=O)c1ccc(Cl)c(S(N)(=O)=O)c1 [Clopamide] | 98.7 ± 12% | –
CC[C@H]1OC(=O)[C@H](C)[C@@H](O[C@H]2C[C@@](C)(OC)[C@@H](O)[C@H](C)O2)[C@H](C)[C@@H](O[C@@H]2O[C@H](C)C[C@H](N(C)C)[C@H]2O)[C@](C)(O)C[C@@H](C)CN(C)[C@H](C)[C@@H](O)[C@]1(C)O [Azithromycin] | 104 ± 6.9% | –
CC[C@H]1OC(=O)[C@H](C)[C@@H](O[C@H]2C[C@@](C)(OC)[C@@H](O)[C@H](C)O2)[C@H](C)[C@@H](O[C@@H]2O[C@H](C)C[C@H](N(C)C)[C@H]2O)[C@](C)(O)C[C@@H](C)CN(C)[C@H](C)[C@@H](O)[C@]1(C)O | 99.9% | –
CC(C)[N+]1(C)[C@@H]2CC[C@H]1C[C@@H](OC(=O)C(CO)c1ccccc1)C2 (some centres not stated) [Ipratropium] | 99.4% | –

Compound | cell viability (compound concentration: 3 uM) | cell viability [1]
CC(C)[N+]1(C)[C@@H]2CC[C@H]1C[C@@H](OC(=O)C(CO)c1ccccc1)C2 (some centres not stated) | 106% | –
CC(C)[N+]1(C)[C@@H]2CC[C@H]1C[C@@H](OC(=O)C(CO)c1ccccc1)C2 (some centres not stated) [Ipratropium bromide] | 102% | –
COc1cc2cc(Oc3ccc4ccc(=O)oc4c3)c(=O)oc2cc1OC(C)=O [Daphnoretine Acetate] | – | 110%
O=C1c2ccccc2C(=O)c2c(O)c(O)cc(O)c21 [Purpurin] | – | 110%
Cc1ccc(-c2cc(C(F)(F)F)nn2-c2ccc(S(N)(=O)=O)cc2)cc1 | 98.1% | –
Cc1ccc(-c2cc(C(F)(F)F)nn2-c2ccc(S(N)(=O)=O)cc2)cc1 [Celecoxib] | 98.8 ± 4.9% | –
Nc1ccc(S(=O)(=O)Nc2nccs2)cc1 | 96.4% | –
Nc1ccc(S(=O)(=O)Nc2nccs2)cc1 [Sulfathiazole] | 96.1% | –
CC(C)[C@H]1CC[C@H](C)C[C@@H]1O [(1S,2R,5S)-(+)-Menthol] | – | 90%
CC(CNC1CCCCC1)OC(=O)c1ccccc1 (configuration not stated) [Hexylcaine hydrochloride] | 127% | –
Cc1cc2c(C(C)C)c(O)c(O)c(/C=N/Nc3cccc(Cl)n3)c2c(O)c1-c1c(C)cc2c(C(C)C)c(O)c(O)c(/C=N/Nc3cccc(Cl)n3)c2c1O | – | 109%
COc1cc2ccc(=O)oc2c(O)c1O [Fraxetin] | – | 89.7%
CO/N=C(\C(=O)N[C@@H]1C(=O)N2C(C(=O)O)=C(COC(C)=O)CS[C@H]12)c1csc(N)n1 [Cefotaxime Acid] | 93% | –
CO/N=C(\C(=O)N[C@@H]1C(=O)N2C(C(=O)O)=C(COC(C)=O)CS[C@H]12)c1csc(N)n1 [Cefotaxime sodium] | 103% | –
CO/N=C(\C(=O)N[C@@H]1C(=O)N2C(C(=O)O)=C(COC(C)=O)CS[C@H]12)c1csc(N)n1 [Cefotaxime sodium salt] | 75.5% | –
CO/N=C(\C(=O)N[C@@H]1C(=O)N2C(C(=O)O)=C(COC(C)=O)CS[C@H]12)c1csc(N)n1 | 106% | –
COc1cc(CNC(=O)CCCC/C=C/C(C)C)ccc1O | 108% | –
COc1cc(CNC(=O)CCCC/C=C/C(C)C)ccc1O [Capsaicin] | 104 ± 10% | 95.9%
O=C(O)[C@@H]1[C@H]2C[C@H]3c4[nH]c5ccccc5c4CCN3C[C@@H]2CC[C@@H]1O [Yohimbinic acid monohydrate] | – | 88.6%
C[C@]12CC[C@@H]3c4ccc(O)cc4C[C@@H](CCCCCCCCC[S+]([O-])CCCC(F)(F)C(F)(F)F)[C@H]3[C@@H]1CC[C@@H]2O (some centres not stated) [Fulvestrant] | 110 ± 2% | –
COC(=O)[C@H](Cc1ccccc1)NC(=O)[C@@H](N)CC(=O)O | 106% | –
C1CCC(N=C(NC23CC4CC(CC(C4)C2)C3)N2CCOCC2)CC1 | 118% | –
O=C(/C=C/c1ccc(O)c(O)c1)O[C@H](Cc1ccc(O)c(O)c1)C(=O)O [Rosmarinic acid] | – | 94.9%
CCCCOc1cc(C(=O)OCCN(CC)CC)ccc1N [Benoxinate hydrochloride] | 105% | –
NC(N)=N[C@@H](CCC(=O)O)C(=O)O [alpha-Guanidinoglutaric acid] | 107% | –
NC(Cc1cnc[nH]1)C(=O)O (racemic) [DL-Histidine hydrochloride, monohydrate] | – | 95.3%
C[N+](C)(C)CC(O)CC(=O)[O-] (configuration not stated) | 105% | –

Complete entries from above:
CO/N=C(\C(=O)N[C@@H]1C(=O)N2C(C(=O)O)=C(COC(C)=O)CS[C@H]12)c1csc(N)n1 [Cefotaxime Acid] is listed with cell viability (compound concentration: 3 uM): 93%
CO/N=C(\C(=O)N[C@@H]1C(=O)N2C(C(=O)O)=C(COC(C)=O)CS[C@H]12)c1csc(N)n1 [Cefotaxime sodium salt] is listed with cell viability (compound concentration: 3 uM): 75.5%
Nc1ccc(S(=O)(=O)Nc2nccs2)cc1 is listed with cell viability (compound concentration: 3 uM): 96.4%
NC(N)=N[C@@H](CCC(=O)O)C(=O)O [alpha-Guanidinoglutaric acid] is listed with cell viability (compound concentration: 3 uM): 107%

Following part:

Compound | cell viability (compound concentration: 3 uM) | cell viability [1]
O=C(O)CCC(C(=O)O)N1C(=O)c2ccccc2C1=O [L-Glutamic acid, N-phthaloyl-] | 103% | –
CC(C)Oc1ccc2c(=O)c(-c3ccccc3)coc2c1 | 104 ± 9.9% | –
CC(C)Oc1ccc2c(=O)c(-c3ccccc3)coc2c1 [Ipriflavone] | – | 92.2%
CC(=O)Nc1nnc(S(N)(=O)=O)s1 [Acetazolamide] | 106 ± 2.3% | –
CC(=O)Nc1nnc(S(N)(=O)=O)s1 | 111% | –
Cc1cc2cc3c(C)cc(=O)oc3c(C)c2o1 | 110% | –
Cc1cc2cc3c(C)cc(=O)oc3c(C)c2o1 [Trioxsalen] | 113% | –
CC(=O)Nc1c(I)cc(I)c(C(=O)O)c1I | 107% | –
Clc1ccc2nsnc2c1NC1=NCCN1 [Tizanidine hydrochloride] | 131% | –
Clc1ccc2nsnc2c1NC1=NCCN1 [Tizanidine] | 89.2% | –
Clc1ccc2nsnc2c1NC1=NCCN1 [Tizanidine HCl] | 114% | –
CCCCCCNC(=O)n1cc(F)c(=O)[nH]c1=O | 102 ± 4.1% | –
CCC[C@@H]1C[C@@H](C(=O)N[C@@H]([C@H]2O[C@H](SC)[C@H](OP(=O)(O)O)[C@@H](O)[C@H]2O)[C@H](C)Cl)N(C)C1 [clindamycin 2-phosphate] | – | 108%
CCC[C@@H]1C[C@@H](C(=O)N[C@@H]([C@H]2O[C@H](SC)[C@H](OP(=O)(O)O)[C@@H](O)[C@H]2O)[C@H](C)Cl)N(C)C1 [Clindamycin Phosphate] | 105% | –
CCCOc1ccccc1-c1nc2[nH]nnc2c(=O)[nH]1 | 109% | –
CCCOc1ccccc1-c1nc2[nH]nnc2c(=O)[nH]1 [Zaprinast] | 98.8 ± 5.7% | –
COC(=O)C1=CO[C@@H](O)[C@@H]2C(CO)=CC[C@H]12 [Genipin] | 112% | 108%
CC#C[C@]1(O)CC[C@H]2[C@@H]3CCC4=CC(=O)CCC4=C3[C@@H](c3ccc(N(C)C)cc3)C[C@@]21C [Mifepristone] | 107 ± 14% | –
CC#C[C@]1(O)CC[C@H]2[C@@H]3CCC4=CC(=O)CCC4=C3[C@@H](c3ccc(N(C)C)cc3)C[C@@]21C | 101% | –
COc1cc(SC)ccc1C(=O)N1CCC(Cc2ccccc2)CC1 | 105% | –
CC(C)=CCC1=C(O)C(=O)c2ccccc2C1=O | 87% | –
Nc1nc(=O)n([C@@H]2CS[C@H](CO)O2)cc1F [Emtricitabine] | 103% | –
COc1ccc(Cl)cc1C(=O)NCCc1ccc(S(=O)(=O)NC(=O)NC2CCCCC2)cc1 [Glibenclamide] | 106% | –
COc1ccc(Cl)cc1C(=O)NCCc1ccc(S(=O)(=O)NC(=O)NC2CCCCC2)cc1 | 102% | –
COc1ccc(Cl)cc1C(=O)NCCc1ccc(S(=O)(=O)NC(=O)NC2CCCCC2)cc1 [Glyburide] | 108% | –
COc1ccc(Cl)cc1C(=O)NCCc1ccc(S(=O)(=O)NC(=O)NC2CCCCC2)cc1 [Glybenclamide] | 103% | –
